Test results as given in article doi:10.1101/022756.
Results are given in words; binding and its absence hold for the method and conditions named. Some binding calls cover weakened binding; strength is not graded here. Tags and fused reporters may be left off the sequences shown.

Target: T1, EFN-4::Fc::mycHis (C. elegans) (UniProt O44516)
T1 sequence: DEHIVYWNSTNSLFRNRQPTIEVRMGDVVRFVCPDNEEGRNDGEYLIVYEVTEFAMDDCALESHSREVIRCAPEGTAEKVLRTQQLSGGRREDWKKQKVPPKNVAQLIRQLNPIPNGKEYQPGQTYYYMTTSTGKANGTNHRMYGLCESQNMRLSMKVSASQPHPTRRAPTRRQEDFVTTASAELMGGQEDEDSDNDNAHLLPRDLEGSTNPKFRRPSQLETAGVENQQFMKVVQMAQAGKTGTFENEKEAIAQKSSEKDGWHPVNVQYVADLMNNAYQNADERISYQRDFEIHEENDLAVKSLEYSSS
Assay: BLI

B1: VAB-1 extracellular domain fused to alkaline phosphatase (receptor, UniProt O61460 30-559)
chain: HQEVLFDLSKVGSDLKWDQVSLRHDRDDVWMEETWRNPAATDEKHANQRAYVTCNYDMINPSNWLFSHFIEVKTARRIYIELLFNTRDCDAYLNPKSCKETFSVYLKQFKTSRPGSTKIEKERFSEDIDNWKNIGRLARSNSNMTTETLGMEIDSDTKTIRIAFEEQGICLSLLNVKIYYRICDEFTDQLVYFRPQVTGPKETDMVRMNGSCIPNASKKIPGVDLIGLCMSTGSGIKTSGECVCDSGYSQIADSNGARCESCPTNTYKPKGQSLCKSCPSNSISSEAASSCRCLNGYFRAEDELISMPCTQPPSRPIKLVANAITATSTRLSWNEPSSLGGRPEIWYEVKCSGRGECGTVVMTPGDKKLSTRSVQINGLRPSSDYTFLVFAKNKVSAQFPEFSEKNAVIDIRTRSEEEDVPPVSHLRVDASQSDGITIAWSVSDSDVSDFEVEVRPAIVKKRTFETRHVNMTYTTFIGLNPETVYQFRVRIRDDLRWSQPISYQLGRGLMSSPSSNEVEESQFLNQTGSA
B1 was tested. Which binding did it give?
Its binding is “binds”.
